Test results published in patent US20170260508A1.
No constants are given. Whether binding was seen depends on the method and setting. Tags and fused reporters may be left off the sequences shown.

Molecular target: LILRB2 Ig1+2 fragment with mutations in AA 92-100 (Mut-8 aa) (human)
Assay: flow cytometry, Angptl2 on 293T cells expressing the mutant

binding: no binding
B1: Angptl2-FLAG, full-length human Angptl2 secreted from transfected 293T cells (ligand, not shown: small tags and cut ends)
chain: QEDGFEGTEEGSPREFIYLNRYKRAGESQDKCTYTFIVPQQRVTGAICVNSKEPEVLLENRVHKQELELLNNELLKQKRQIETLQQLVEVDGGIVSEVKLLRKESRNMNSRVTQLYMQLLHEIIRKRDNALELSQLENRILNQTADMLQLASKYKDLEHKYQHLATLAHNQSEIIAQLEEHCQRVPSARPVPQPPPAAPPRVYQPPTYNRIINQISTNEIQSDQNLKVLPPPLPTMPTLTSLPSSTDKPSGPWRDCLQALEDGHDTSSIYLVKPENTNRLMQVWCDQRHDPGGWTVIQRRLDGSVNFFRNWETYKQGFGNIDGEYWLGLENIYWLTNQGNYKLLVTMEDWSGRKVFAEYASFRLEPESEYYKLRLGRYHGNAGDSFTWHNGKQFTTLDRDHDVYTGNCAHYQKGGWWYNACAHSNLNGVWYRGGHYRSRYQDGVYWAEFRGGSYSLKKVVMMIRPNPNTFH
